# This is one part of the list.
# B1: TbCVNHOa (Tuber borchii), Q5MK11 (protein)
# chain: MSYADSSRNAVLTNGGRTLRAECRNADGNWVTSELDLDTCIGNPNGFLGWGMQNFSHSSEDIKLEEGGRKLTCRPKTVDGGFRERQGIDLNRIQNVNGRLVFQ
# Key:
# Assay in all cases: glycan array binding signal (z-score within array); higher = stronger binding
# Settings in all cases: glycan notation: IUPAC condensed, linker removed
# [1] = target: Fuc(a1-2)[GalNAc(a1-3)]Gal(b1-4)Glc
# Outline: (§1)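 Negative Z-scores can be read as non-binding. The Z-score is calculated within each array and then averaged across arrays of one protein sequence at different concentrations or buffers and across linkers. Arrays, 3228 in all, were curated from the Consortium for Functional Glycomics database and kept only where the protein sequence was available.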
# [2] = target: Fuc(a1-2)[GalNAc(a1-3)]Gal(b1-4)GlcNAc
# Outline: as §1
# [3] = target: Fuc(a1-2)[GalNAc(a1-3)]Gal(b1-4)[Fuc(a1-3)]GlcNAc
# Outline: as §1
# [4] = target: Fuc(a1-2)[GalNAc(a1-4)]Gal(b1-4)GlcNAc
# Outline: as §1
# [5] = target: Fuc(a1-2)[GalNAc(b1-3)]Gal
# Outline: as §1
# Fuc(a1-3)GlcNAc = target: Fuc(a1-3)GlcNAc
# Outline: as §1
# [6] = target: Fuc(a1-3)[Gal(b1-4)]Glc6S
# Outline: as §1
# [7] = target: Fuc(a1-3)[Gal(b1-4)]GlcNAc
# Outline: as §1
# [8] = target: Fuc(a1-3)[Gal(b1-4)]GlcNAc(b1-3)Gal(b1-3)[Fuc(a1-4)]GlcNAc
# Outline: as §1
# [9] = target: Fuc(a1-3)[Gal(b1-4)]GlcNAc(b1-4)Gal(b1-4)[Fuc(a1-3)]GlcNAc
# Outline: as §1
# [10] = target: Fuc(a1-3)[Gal(b1-4)]GlcNAc(b1-4)Gal(b1-4)[Fuc(a1-3)]GlcNAc(b1-4)Gal(b1-4)[Fuc(a1-3)]GlcNAc
# Outline: as §1
# [11] = target: Fuc(a1-3)[Gal(b1-4)]GlcNAc6S
# Outline: as §1
# [12] = target: Fuc(a1-3)[Gal3S(b1-4)]Glc6S
# Outline: as §1
# [13] = target: Fuc(a1-3)[Gal3S(b1-4)]GlcNAc
# Outline: as §1
# [14] = target: Fuc(a1-3)[Gal3S(b1-4)]GlcNAc6S
# Outline: as §1
# [15] = target: Fuc(a1-3)[GalNAc(b1-4)]GlcNAc
# Outline: as §1
# Fuc(a1-4)GlcNAc = target: Fuc(a1-4)GlcNAc
# Outline: as §1
# Fuc(b1-3)GlcNAc = target: Fuc(b1-3)GlcNAc
# Outline: as §1
# Gal(a1-2)Gal = target: Gal(a1-2)Gal
# Outline: as §1
# Gal(a1-3)Gal = target: Gal(a1-3)Gal
# Outline: as §1
# Gal(a1-3)Gal(b1-3)GlcNAc = target: Gal(a1-3)Gal(b1-3)GlcNAc
# Outline: as §1
# Gal(a1-3)Gal(b1-4)Glc = target: Gal(a1-3)Gal(b1-4)Glc
# Outline: as §1
# Gal(a1-3)Gal(b1-4)GlcNAc = target: Gal(a1-3)Gal(b1-4)GlcNAc
# Outline: as §1
# [16] = target: Gal(a1-3)Gal(b1-4)[Fuc(a1-3)]GlcNAc
# Outline: as §1
# Gal(a1-3)GalNAc = target: Gal(a1-3)GalNAc
# Outline: as §1
# [17] = target: Gal(a1-3)[Gal(a1-4)]Gal(b1-4)GlcNAc
# Outline: as §1
# Gal(a1-4)Gal(b1-4)Glc = target: Gal(a1-4)Gal(b1-4)Glc
# Outline: as §1
# Gal(a1-4)Gal(b1-4)GlcNAc = target: Gal(a1-4)Gal(b1-4)GlcNAc
# Outline: as §1
# Gal(a1-4)GlcNAc = target: Gal(a1-4)GlcNAc
# Outline: as §1
# Gal(a1-6)Glc = target: Gal(a1-6)Glc
# Outline: as §1
binder,measurement,setting,value
B1,glycan array binding signal (z-score),[1],-0.367
same,glycan array binding signal (z-score),[2],-0.035
same,glycan array binding signal (z-score),[3],0.211
same,glycan array binding signal (z-score),[4],-0.056
same,glycan array binding signal (z-score),[5],-0.153
same,glycan array binding signal (z-score),Fuc(a1-3)GlcNAc,0.408
same,glycan array binding signal (z-score),[6],-0.197
same,glycan array binding signal (z-score),[7],-0.024
same,glycan array binding signal (z-score),[8],-0.039
same,glycan array binding signal (z-score),[9],0.381
same,glycan array binding signal (z-score),[10],0.03
same,glycan array binding signal (z-score),[11],0.259
same,glycan array binding signal (z-score),[12],0.016
same,glycan array binding signal (z-score),[13],-0.153
same,glycan array binding signal (z-score),[14],-0.101
same,glycan array binding signal (z-score),[15],0.07
same,glycan array binding signal (z-score),Fuc(a1-4)GlcNAc,-0.164
same,glycan array binding signal (z-score),Fuc(b1-3)GlcNAc,0.478
same,glycan array binding signal (z-score),Gal(a1-2)Gal,-0.134
same,glycan array binding signal (z-score),Gal(a1-3)Gal,0.016
same,glycan array binding signal (z-score),Gal(a1-3)Gal(b1-3)GlcNAc,-0.161
same,glycan array binding signal (z-score),Gal(a1-3)Gal(b1-4)Glc,1.45
same,glycan array binding signal (z-score),Gal(a1-3)Gal(b1-4)GlcNAc,-0.428
same,glycan array binding signal (z-score),[16],-0.54
same,glycan array binding signal (z-score),Gal(a1-3)GalNAc,0.742
same,glycan array binding signal (z-score),[17],0.075
same,glycan array binding signal (z-score),Gal(a1-4)Gal(b1-4)Glc,-0.365
same,glycan array binding signal (z-score),Gal(a1-4)Gal(b1-4)GlcNAc,-0.189
same,glycan array binding signal (z-score),Gal(a1-4)GlcNAc,0.211
same,glycan array binding signal (z-score),Gal(a1-6)Glc,0.212

# Some of the entries above, reformatted:
binder	measurement	setting	value
B1	glycan array binding signal (z-score)	Gal(a1-3)Gal(b1-3)GlcNAc	-0.161
same	glycan array binding signal (z-score)	Gal(a1-3)Gal(b1-4)GlcNAc	-0.428
